The source gives many values for each of these; only a part stands here.
Tested on: RNA isoforms in PNN 1-46 SMA type I patient-derived fibroblasts
Assay: RNA Abundance Modulation (RNA isoform abundance, iFPM, HiSeq RNA sequencing)
Assay type: cell-based, human
Settings: 3 μM
Procedure: Cells from a cell line of interest are cultured in conditions sufficient to yield the number of cells capable of generating enough RNA for subsequent sequencing steps. Cells from the tested cell line are contacted with a compound described herein.
To culture said cells, they are seeded, at appropriate concentrations in a volume of media in a cell culture container and incubated for 4, 5, 6, 7, 8, 9, 10, or more hours. A concentrated solution of compound in a vehicle (e.g., DMSO) is then added in sufficient volume to result in the intended final concentration of the compound, for example 100 nM, 500 nM, 1 μM, 5 μM, 10 μM, 15 μM, 20 μM, or more. The cells may also be treated with vehicle alone, as a control. A number of replicates of each concentration or control may be made (e.g., 2 replicates). The cells are then incubated at a constant temperature appropriate for cell culture of the particular cell line (e.g., 37° C.) for 6, 12, 18, 24, 48, or more hours. After incubation, the growth medium is removed and the cells are washed with the appropriate buffer (e.g., PBS). Cells are then removed from adherence to the cell culture container by treatment with a solution containing trypsin, and the trypsin subsequently quenched with the appropriate volume of buffer (e.g., DMEM-FBS). The cells are then pelleted with gentle centrifugation (e.g., ≤90×g centrifugal force) and resuspended in a buffer to lyse the cells for extraction of RNA. The cell lysates may then be frozen (e.g., at −80° C.) or, alternately, may immediately be used in a procedure to purify the RNA (e.g. by use of the RNEASY PLUS® minikit). The RNA from cell lysates is eluted in the appropriate volume of buffer (e.g., RNEASE-FREE H2O®). The resulting purified RNA may then be sequenced (e.g., using RNASeq) or analyzed using a human exon array (e.g., by GENECHIP® human exon array) to determine changes in the RNA levels in those cells treated with compound compared to those cells treated only with DMSO. The purified RNA may also be quantified by other methods known in the art.
Using the RNA data obtained from sequencing, exon array, or other methods, a statistical analysis can reveal changes in the RNA levels of compound-treated compared with control. For example, t-test p-values may be calculated for the data obtained through sequencing and exon array methods in order to compare compound-treated cells to those treated with the DMSO control. […] Analysis of the sequencing and exon array data may then also yield predictions about the cause of the aberrant amount of an RNA transcript in the cells (e.g., perturbation of RNA splicing, RNA transcription, or RNA stability). These predictions may be further confirmed by methods known in the art. For example, RT-PCR and RT-qPCR may be used to confirm the change in amount of RNA transcripts for one or more particular transcripts of interest.
Following the methods described above in Example 1, PNN 1-46 SMA type I patient-derived fibroblasts were treated with 300 nM or 3 μM Compounds 774 and 808 in 0.5% DMSO.
700,000 cells were seeded in 10 mL of medium (DMEM plus 10% FBS) in a T-75 flask. Cells were allowed to attach for at least 4 hrs, after which 50 μL of a 200× compound solution (100% DMSO) was added to each well, and the plate was incubated at 37° C. for 24 hrs.
At the end of the incubation period, the supernatant was removed and the cells where washed with PBS. TrypLE (Invitrogen) express solution was added (e.g. 1.5 mL per one T75 flask). The flasks were incubated for 3 to 5 min at 37° C. The trypsin was then quenched, e.g., by adding 10 mL DMEM-FBS.
Next, the cells were pelleted using gentle centrifugation without exceeding 90×g centrifugal force. The supernatant was removed and the cell pellet was re-suspended in 600 μL RLT buffer (the RLT buffer was supplemented with beta-mercaptoethanol according to the RNeasy protocol manual) by pipetting up and down until the pellet was completely dissolved […]

## CCc1nc(C)cn2nc(-c3cc(=O)n4cc(C5CCN(C)CC5)cc(C)c4n3)cc12 [Compound 774]
FNBP1 BC143513
  amp FC (x + 1): 1.49
  ave Cpd: 825 iFPM
FNBP1 BC143514
  FC (x + 1): 0.0091
  L2FC (x + 1): −6.774
  L2abs (Cpd-DMSO): 6.76
  abs (Cpd-DMSO): 108 iFPM
  amp FC (x + 1): 109.46
  ave Cpd: 0 iFPM
FNBP1 BC143515
  FC (x + 1): 0.1056
  L2FC (x + 1): −3.243
  L2abs (Cpd-DMSO): 7.16
  abs (Cpd-DMSO): 143 iFPM
  amp FC (x + 1): 9.47
  ave Cpd: 16 iFPM
FNBP1 NM_015033
  FC (x + 1): 1.3897
  L2FC (x + 1): 0.475
  L2abs (Cpd-DMSO): 6.68
  abs (Cpd-DMSO): 103 iFPM
  amp FC (x + 1): 1.39
  ave Cpd: 366 iFPM
FOS AK290907
  FC (x + 1): 0.2145
  L2FC (x + 1): −2.221
  L2abs (Cpd-DMSO): 7.56
  abs (Cpd-DMSO): 189 iFPM
  amp FC (x + 1): 4.66
  ave Cpd: 51 iFPM
FOS AK298659
  FC (x + 1): 0.2853
  L2FC (x + 1): −1.809
  L2abs (Cpd-DMSO): 4.84
  abs (Cpd-DMSO): 29 iFPM
  amp FC (x + 1): 3.51
  ave Cpd: 10 iFPM
FOS NM_005252
  FC (x + 1): 0.1221
  L2FC (x + 1): −3.034
  L2abs (Cpd-DMSO): 11.28
  abs (Cpd-DMSO): 2482 iFPM
  amp FC (x + 1): 8.19
  ave Cpd: 344 iFPM
FOSB AK225070
  FC (x + 1): 0.0858
  L2FC (x + 1): −3.543
  L2abs (Cpd-DMSO): 6.13
  abs (Cpd-DMSO): 70 iFPM
  amp FC (x + 1): 11.66
  ave Cpd: 6 iFPM
FOSB EU178110
  FC (x + 1): 7.4119
  L2FC (x + 1): 2.890
  L2abs (Cpd-DMSO): 2.68
  abs (Cpd-DMSO): 6 iFPM
  amp FC (x + 1): 7.41
  ave Cpd: 6 iFPM
FOSB EU178111
  FC (x + 1): 0.3242
  L2FC (x + 1): −1.625
  L2abs (Cpd-DMSO): 4.81
  abs (Cpd-DMSO): 28 iFPM
  amp FC (x + 1): 3.08
  ave Cpd: 12 iFPM
FOSB EU178112
  FC (x + 1): 0.0339
  L2FC (x + 1): −4.881
  L2abs (Cpd-DMSO): 4.83
  abs (Cpd-DMSO): 28 iFPM
  amp FC (x + 1): 29.48
  ave Cpd: 0 iFPM

— patent US10688099B2, “Methods for modulating the amount of RNA transcripts” (PTC Therapeutics, Inc., priority 2013, dated 2020)
